Source: PubChem BioAssay AID504804 (Drosophila RNAi Screening Center, 2011)
Screen: 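Knock-downs shielding fly cells from apoptosis caused by DNA damage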 (primary screen). System: Drosophila Kc cells. Knock-down reagent: long dsRNA against Drosophila genes, 0.5 µg dsRNA per well. Timing: 96 h (48 h knock-down, then 48 h drug). Treatment: doxorubicin 5 µg/ml for 48 h, added 48 h after dsRNA. Detection: 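Viability measured as cellular ATP by luminescence after 48 h knock-down then 48 h doxorubicin at 5 µg/ml; unnormalised plate counts for each replicate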. Scale: raw ATP luminescence: higher = more viable cells, protection from doxorubicin. Rule for the call: 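Active when both duplicate wells lie at least 2 SD above the plate mean and protection is confirmed by rescreening and independent dsRNAs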.
The deposit covers about 19,000 reagents; shown is an unselected part of those that have a named target and a result. In the full data, 47 (0.25%) got an active call. 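Signals are raw, not normalised; exact z-scores behind calls not deposited; actives needed confirmation, so some wells reaching 2 SD are inactive.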 Entries without a mark were called inactive. The numbers tell different reagents against one gene apart. A plus sign joins genes that one reagent is predicted to hit.

target | dsRNA no. | raw ATP luminescence, replicate 1 | raw ATP luminescence, replicate 2
SC35 (SR family splicing factor SC35) | 1 | 51100 | 63877
SC35 (SR family splicing factor SC35) | 2 | 65467 | 65483
Mlp84B (Muscle LIM protein at 84B) | 1 | 51713 | 54473
rig (rigor mortis) | 1 | 67500 | 52400
Dph2 (Diphthamide biosynthesis 2) | 1 | 52640 | 20470
CR42546 (pseudo) | 1 | 62763 | 57477
bab1 (bric a brac 1) | 1 | 40163 | 36890
ZnT41F (Zinc transporter 41F) | 1 | 60467 | 70810
SuUR (Suppressor of Under-Replication) | 1 | 93083 | 73957
CG18180 | 1 | 43567 | 34853
mre11 (meiotic recombination 11) | 1 | 1.08e5 | 1.07e5
Pisd (Phosphatidylserine decarboxylase) | 1 | 43923 | 47957
stol (stolid) | 1 | 69433 | 73967
CG3281 | 1 | 59357 | 30570
Dtg (Dpp target gene) | 1 | 63920 | 27920
CG42307 + mus312 | 1 | 86113 | 1.08e5
Cyp6a20 (Cytochrome P450 6a20) | 1 | 72273 | 69347
CG13051 | 1 | 42267 | 38010
Tet (Ten-Eleven Translocation (TET) family protein) | 1 | 84423 | 71510
CG5612 | 1 | 34450 | 40450
st (scarlet) | 1 | 26443 | 26947
Cpr78E (Cuticular protein 78E) | 1 | 69390 | 84367
CG16978 | 1 | 76573 | 74997
Uch (Ubiquitin carboxy-terminal hydrolase) | 1 | 1.01e5 | 90633
Rlb1 | 1 | 53397 | 49910
RacGAP84C (Rac GTPase activating protein at 84C) | 1 | 66177 | 58903
CG7728 | 1 | 20857 | 18230
CG13043 | 1 | 38630 | 28500
Egm (Enigma) | 1 | 69153 | 60953
SP1173 | 1 | 29937 | 40680
Su(fu) (Suppressor of fused) | 1 | 70470 | 43900
side-V (sidestep V) | 1 | 56677 | 76860
side-V (sidestep V) | 2 | 1.87e5 | 2.02e5
CG6696 | 1 | 2.77e5 | 2.34e5
CG10139 | 1 | 49767 | 49770
CG31100 | 1 | 66923 | 59503
CG31100 | 2 | 56297 | 70280
CG32241 | 1 | 1.60e5 | 1.52e5
stx (stuxnet) | 1 | 82640 | 90470
stx (stuxnet) | 2 | 1.93e5 | 2.21e5

Sorted by “raw ATP luminescence, replicate 1” (low to high): 13 of the entries above
target | dsRNA no. | raw ATP luminescence, replicate 1 | raw ATP luminescence, replicate 2
bab1 (bric a brac 1) | 1 | 40163 | 36890
CG18180 | 1 | 43567 | 34853
Pisd (Phosphatidylserine decarboxylase) | 1 | 43923 | 47957
Dph2 (Diphthamide biosynthesis 2) | 1 | 52640 | 20470
CG3281 | 1 | 59357 | 30570
ZnT41F (Zinc transporter 41F) | 1 | 60467 | 70810
CR42546 (pseudo) | 1 | 62763 | 57477
Dtg (Dpp target gene) | 1 | 63920 | 27920
stol (stolid) | 1 | 69433 | 73967
Cyp6a20 (Cytochrome P450 6a20) | 1 | 72273 | 69347
CG42307 + mus312 | 1 | 86113 | 1.08e5
SuUR (Suppressor of Under-Replication) | 1 | 93083 | 73957
mre11 (meiotic recombination 11) | 1 | 1.08e5 | 1.07e5

The list goes on.
target | dsRNA no. | raw ATP luminescence, replicate 1 | raw ATP luminescence, replicate 2
CG34436 | 1 | 49130 | 44190
heph (hephaestus) | 1 | 3.15e5 | 3.20e5
heph (hephaestus) | 2 | 3.25e5 | 2.76e5
heph (hephaestus) | 3 | 27340 | 33320
heph (hephaestus) | 4 | 47710 | 62240
sc (scute) | 1 | 33950 | 33740
CG33460 | 1 | 95020 | 96937
CG9877 | 1 | 68943 | 73377
Gr59f (Gustatory receptor 59f) | 1 | 45940 | 52517
Cpr50Ca (Cuticular protein 50Ca) | 1 | 98190 | 1.14e5
CG32523 | 1 | 3.20e5 | 3.49e5
CG45105 | 1 | 33010 | 27750
CG45105 | 2 | 54770 | 53620
Sas10 (Something about silencing 10) | 1 | 37770 | 44630
Blos3 | 1 | 1.78e5 | 1.64e5
Porin2 | 1 | 42613 | 63117
CG32212 + hpRNA:CR33940 | 1 | 60680 | 80163
CG5171 | 1 | 1.25e5 | 1.00e5
CG14696 | 1 | 59363 | 47750
Tsp33B (Tetraspanin 33B) | 1 | 28193 | 47923
CG9926 | 1 | 58613 | 23393
gammaSnap2 (gamma Soluble NSF attachment protein 2) | 1 | 55893 | 53320
CG13494 | 1 | 58263 | 48280
nmd (no mitochondrial derivative) | 1 | 88043 | 76323
Gad1 (Glutamic acid decarboxylase 1) | 1 | 43613 | 34153
CG18302 | 1 | 34857 | 55177
Acn (Acinus) | 1 | 73440 | 57020
CG14777 | 1 | 57960 | 68050
SkpE (SKP1-related E) | 1 | 3.16e5 | 3.02e5
CG15784 | 1 | 34310 | 38060
holn1 (hole-in-one) | 1 | 1.03e5 | 62683
CG2663 | 1 | 51813 | 53587
Ubc87F (Ubiquitin conjugating enzyme 87F) | 1 | 65100 | 65500
CG31960 | 1 | 32823 | 37197
CG6310 | 1 | 72733 | 71470
croc (crocodile) | 1 | 69427 | 63477
CG42699 | 1 | 33720 | 35500
CG9330 | 1 | 74853 | 80293
mRRF2 (mitochondrial ribosome recycling factor 2) | 1 | 61240 | 62130
CG42299 + CG42300 | 1 | 3.93e5 | 3.24e5
CG42299 + CG42300 | 2 | 3.59e5 | 2.82e5
kappaB-Ras + CG30503 | 1 | 37657 | 76193
kappaB-Ras + CG30503 | 2 | 39657 | 71393
Cdc50 (Cell division cycle 50) | 1 | 3.59e5 | 3.84e5
